PubChem BioAssay AID652243, Drosophila RNAi Screening Center | 2013
The deposit covers about 24,000 reagents; this is an unselected part of those with a known target gene and a result. Of all reagents, 246 (1%) are marked active. 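Plates not normalised; calls are printed but the firefly/Renilla ratio behind them is not deposited; fold cut for lowering reported inconsistently.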 Raw values vary from plate to plate and are shown uncorrected. A plus sign joins genes that one reagent is predicted to hit. The record does not give: the amount of reagent.

Assay: 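Knock-downs that decrease or increase androgen receptor reporter signal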 (primary screen)
Cell system: Drosophila S2R+ cells
Reagent: long dsRNA against Drosophila genes
Duration: 72 h (48 h, then 24 h hormone)
Treatment: synthetic androgen R1881 at 10 nM for 24 h
Measurement: 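Firefly light from an androgen-responsive reporter and Renilla control light per well, raw and unnormalised, for each of two replicates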
Scale: firefly reporter light: higher = more light from androgen-responsive reporter; Renilla control light: higher = more constitutive control signal (cell number, transfection)
Hit rule: 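Across duplicate plates, a knock-down whose log firefly/Renilla ratio shifted a set fold down or up from the GFP/LacZ control mean was a hit; the downward cut appears as both 1.5 and 3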
Meaning of the calls: active = hit: reporter lowered or raised; inactive = no hit

gene | dsRNA | firefly reporter light, replicate 1 | firefly reporter light, replicate 2 | Renilla control light, replicate 1 | Renilla control light, replicate 2 | outcome
lectin-46Ca | DRSC06612 | 4.42e5 | 4.19e5 | 2.50e6 | 2.43e6 | inactive
lectin-46Ca | DRSC25469 | 2.43e5 | 3.05e5 | 4.38e5 | 4.28e5 | inactive
ben | DRSC20310 | 31696 | 49256 | 2.89e5 | 3.41e5 | inactive
ben | DRSC21261 | 4.08e5 | 4.52e5 | 5.99e5 | 5.18e5 | inactive
ben | DRSC29133 | 8.18e5 | 6.23e5 | 1.31e6 | 9.68e5 | inactive
CG31098 | DRSC14259 | 2.02e5 | 2.39e5 | 1.83e6 | 1.89e6 | inactive
Gprk2 | DRSC16682 | 8856 | 3774 | 1.43e5 | 1.15e5 | active
Gprk2 | DRSC23336 | 1.05e6 | 7.69e5 | 6.62e5 | 5.38e5 | active
Gprk2 | DRSC36647 | – | – | – | – | inactive
Gprk2 | DRSC36648 | – | – | – | – | inactive
U4-U6-60K | DRSC10624 | 40890 | 60881 | 4.40e5 | 5.85e5 | inactive
prc | DRSC11385 | 2.28e5 | 2.42e5 | 2.29e6 | 1.77e6 | inactive
CG5399 | DRSC15791 | 93809 | 1.24e5 | 1.54e6 | 2.27e6 | inactive
CG5399 | DRSC25357 | 5.96e5 | 5.19e5 | 8.63e5 | 9.33e5 | inactive
msi | DRSC17003 | 2.07e5 | 3.45e5 | 1.99e6 | 1.68e6 | inactive
TkR99D | DRSC16881 | 4.24e5 | 3.63e5 | 2.09e6 | 2.69e6 | inactive
RpS9 | DRSC11273 | 4.82e5 | 3.72e5 | 1.21e6 | 1.67e6 | inactive
Dp1 | DRSC07403 | 4.15e5 | 4.86e5 | 4.93e5 | 4.50e5 | inactive
CG30440 | DRSC04775 | 2.63e5 | 2.93e5 | 5.66e5 | 5.00e5 | inactive
CG30440 | DRSC04845 | 4.29e5 | 4.02e5 | 3.14e6 | 2.41e6 | inactive
CG30440 | DRSC04855 | 2.65e5 | 2.38e5 | 1.69e6 | 1.22e6 | inactive
ChT | DRSC16296 | 59608 | 51514 | 4.07e5 | 3.66e5 | inactive
CG2656 | DRSC12584 | 51859 | 40789 | 2.88e5 | 3.07e5 | inactive
lolal | DRSC06948 | 1.19e6 | 1.43e6 | 1.88e6 | 1.72e6 | inactive
CG5515 | DRSC15825 | 76607 | 42672 | 4.64e5 | 3.85e5 | inactive
FMRFa | DRSC07428 | 2.59e5 | 1.77e5 | 1.45e6 | 1.27e6 | inactive
Abi | DRSC14099 | 70727 | 1.05e5 | 7.14e5 | 8.55e5 | inactive
Abi | DRSC27275 | 3.37e5 | 2.79e5 | 4.75e5 | 4.21e5 | inactive
CG3430 | DRSC02713 | 1.15e6 | 1.34e6 | 1.87e6 | 1.91e6 | inactive
Try29F | DRSC03466 | 2.41e5 | 1.85e5 | 1.75e6 | 1.40e6 | inactive
Try29F | DRSC25721 | 3.29e5 | 2.54e5 | 7.33e5 | 5.40e5 | inactive
Gcat | DRSC09719 | 2.26e5 | 2.11e5 | 2.17e6 | 2.28e6 | inactive
Gcat | DRSC26093 | 4.65e5 | 4.14e5 | 7.69e5 | 9.12e5 | inactive
CG5880 | DRSC15906 | 74318 | 70659 | 7.56e5 | 6.61e5 | inactive
CG11951 | DRSC14442 | 2.33e5 | 1.97e5 | 2.43e6 | 2.99e6 | inactive
CG11951 | DRSC25645 | 9.74e5 | 1.07e6 | 9.34e5 | 1.01e6 | inactive
scaRNA:MeU5-C46 | DRSC36572 | 9.18e5 | 6.53e5 | 1.33e6 | 9.81e5 | inactive
Rab9D + Rab9Fa + Rab9E | DRSC19853 | 3.02e5 | 2.93e5 | 2.66e6 | 2.92e6 | inactive
CG10809 | DRSC09802 | 2.93e5 | 2.00e5 | 2.74e6 | 2.34e6 | inactive
CG10809 | DRSC29041 | 3.11e5 | 2.43e5 | 1.69e6 | 9.52e5 | active
CG13516 | DRSC04159 | 4.02e5 | 3.10e5 | 2.32e6 | 1.59e6 | inactive
CG18853 | DRSC06795 | 4.27e5 | 5.48e5 | 2.32e6 | 1.88e6 | inactive
aub | DRSC03486 | 8.99e5 | 4.84e5 | 2.15e6 | 1.70e6 | inactive
aub | DRSC26878 | 3.70e5 | 3.23e5 | 7.09e5 | 5.87e5 | inactive
CG1889 + CG43386 | DRSC17979 | 2.94e5 | 3.48e5 | 1.65e6 | 2.35e6 | inactive
wrd | DRSC16344 | 1.50e5 | 1.67e5 | 1.61e6 | 1.83e6 | inactive
wrd | DRSC23189 | 7.59e5 | 7.56e5 | 1.43e6 | 1.74e6 | inactive
wrd | DRSC25929 | 3.28e5 | 3.56e5 | 1.11e6 | 1.08e6 | inactive
lawc | DRSC23208 | 7.59e5 | 6.95e5 | 2.07e6 | 1.70e6 | inactive
CG1537 | DRSC19662 | 2.81e5 | 3.63e5 | 3.58e6 | 4.47e6 | inactive
sturkopf | DRSC08637 | 1.11e6 | 7.75e5 | 1.48e6 | 9.67e5 | inactive
sturkopf | DRSC29932 | 2.84e5 | 3.06e5 | 1.12e6 | 1.01e6 | inactive
holn1 | DRSC02827 | 8.65e5 | 6.92e5 | 2.34e6 | 2.38e6 | inactive
holn1 | DRSC22822 | 6.44e5 | 9.10e5 | 2.81e5 | 3.97e5 | inactive
CG9806 | DRSC18444 | 3.57e5 | 2.90e5 | 2.98e6 | 2.59e6 | inactive
CG9806 | DRSC27417 | 2.32e5 | 3.60e5 | 6.53e5 | 6.36e5 | inactive
Orp8 | DRSC15110 | 3.02e5 | 4.32e5 | 2.48e6 | 3.17e6 | inactive
Orp8 | DRSC15712 | 66800 | 76986 | 6.46e5 | 5.09e5 | inactive
Orp8 | DRSC28849 | 4.36e5 | 5.22e5 | 1.32e6 | 1.48e6 | inactive
PIG-C | DRSC08241 | 3.02e5 | 4.31e5 | 9.74e5 | 1.43e6 | inactive
CG33687 | DRSC37822 | 9.29e5 | 6.16e5 | 2.33e6 | 2.27e6 | inactive
Edem1 | DRSC18573 | 78100 | 63851 | 5.73e5 | 4.37e5 | inactive
Elp1 | DRSC14250 | 46999 | 40668 | 3.24e5 | 4.08e5 | inactive
tgo | DRSC17077 | 56478 | 52983 | 4.15e5 | 6.05e5 | inactive
tgo | DRSC29930 | 5.55e5 | 5.24e5 | 1.05e6 | 1.37e6 | inactive
CG7271 | DRSC22561 | 1.08e6 | 9.86e5 | 1.35e6 | 1.37e6 | inactive
CG8051 | DRSC20077 | 2.04e5 | 1.67e5 | 6.61e5 | 5.32e5 | inactive
CG8051 | DRSC26855 | 6.37e5 | 4.55e5 | 8.64e5 | 5.50e5 | inactive
CG6295 | DRSC16012 | 87828 | 1.25e5 | 1.58e6 | 1.87e6 | inactive
CG6295 | DRSC24229 | 6.98e5 | 9.48e5 | 7.04e5 | 8.82e5 | inactive
ERp60 | DRSC07309 | 7.25e5 | 1.06e6 | 1.21e6 | 1.17e6 | inactive
ERp60 | DRSC24471 | 5.73e5 | 2.68e5 | 6.12e5 | 4.47e5 | inactive
trc | DRSC11406 | 2.63e5 | 2.32e5 | 2.32e6 | 2.64e6 | inactive
trc | DRSC29426 | 3.50e5 | 3.77e5 | 7.42e5 | 7.42e5 | inactive
trc | DRSC37008 | – | – | – | – | inactive

11 entries from above, reformatted:
{"gene":"Abi","dsRNA":"DRSC27275","firefly reporter light, replicate 1":3.37e5,"firefly reporter light, replicate 2":2.79e5,"Renilla control light, replicate 1":4.75e5,"Renilla control light, replicate 2":4.21e5,"outcome":"inactive"}
{"gene":"CG3430","dsRNA":"DRSC02713","firefly reporter light, replicate 1":1.15e6,"firefly reporter light, replicate 2":1.34e6,"Renilla control light, replicate 1":1.87e6,"Renilla control light, replicate 2":1.91e6,"outcome":"inactive"}
{"gene":"Try29F","dsRNA":"DRSC03466","firefly reporter light, replicate 1":2.41e5,"firefly reporter light, replicate 2":1.85e5,"Renilla control light, replicate 1":1.75e6,"Renilla control light, replicate 2":1.40e6,"outcome":"inactive"}
{"gene":"Try29F","dsRNA":"DRSC25721","firefly reporter light, replicate 1":3.29e5,"firefly reporter light, replicate 2":2.54e5,"Renilla control light, replicate 1":7.33e5,"Renilla control light, replicate 2":5.40e5,"outcome":"inactive"}
{"gene":"Gcat","dsRNA":"DRSC09719","firefly reporter light, replicate 1":2.26e5,"firefly reporter light, replicate 2":2.11e5,"Renilla control light, replicate 1":2.17e6,"Renilla control light, replicate 2":2.28e6,"outcome":"inactive"}
{"gene":"Gcat","dsRNA":"DRSC26093","firefly reporter light, replicate 1":4.65e5,"firefly reporter light, replicate 2":4.14e5,"Renilla control light, replicate 1":7.69e5,"Renilla control light, replicate 2":9.12e5,"outcome":"inactive"}
{"gene":"CG5880","dsRNA":"DRSC15906","firefly reporter light, replicate 1":74318,"firefly reporter light, replicate 2":70659,"Renilla control light, replicate 1":7.56e5,"Renilla control light, replicate 2":6.61e5,"outcome":"inactive"}
{"gene":"CG11951","dsRNA":"DRSC14442","firefly reporter light, replicate 1":2.33e5,"firefly reporter light, replicate 2":1.97e5,"Renilla control light, replicate 1":2.43e6,"Renilla control light, replicate 2":2.99e6,"outcome":"inactive"}
{"gene":"CG11951","dsRNA":"DRSC25645","firefly reporter light, replicate 1":9.74e5,"firefly reporter light, replicate 2":1.07e6,"Renilla control light, replicate 1":9.34e5,"Renilla control light, replicate 2":1.01e6,"outcome":"inactive"}
{"gene":"scaRNA:MeU5-C46","dsRNA":"DRSC36572","firefly reporter light, replicate 1":9.18e5,"firefly reporter light, replicate 2":6.53e5,"Renilla control light, replicate 1":1.33e6,"Renilla control light, replicate 2":9.81e5,"outcome":"inactive"}
{"gene":"Rab9D + Rab9Fa + Rab9E","dsRNA":"DRSC19853","firefly reporter light, replicate 1":3.02e5,"firefly reporter light, replicate 2":2.93e5,"Renilla control light, replicate 1":2.66e6,"Renilla control light, replicate 2":2.92e6,"outcome":"inactive"}
